Test system: H460 (human non small cell lung cancer cell line)
Assay: RT-CES system cell proliferation/cytotoxicity, H460
Type: cell-based
Details: H460 cells, FIGS. 1B and 1C, at concentrations studied

Compound: CN[C@H]1CCc2cc(OC)c(OC)c(OC)c2-c2ccc(OC)c(=O)cc21 [colcemid, reference compound]
- Effect on cell proliferation (time-dependent cell index): exhibited inhibitory ability against the proliferation
